Article PMC12843386, “Ly6/uPAR Protein from Asterias rubens Starfish Stimulates Migration and Invasion of Human Epithelial and Immune Cells” (Marine Drugs, 2025)
No constants are given. Whether binding was seen depends on the method and setting. Binding seen in cells or lysates may run through a third protein. Binding calls can cover weak binding; strength is not graded here.

What was measured:
[1] = target: T1, peptide mimicking loop I of Lystar5 (Asterias rubens); experiment: pull-down; affinity extraction: Lystar5 or loop I or II (1 mg/mL) coupled to NHS Flexibind magnetic beads, incubated 1 h in TBS with the pre-cleared membrane fraction of HaCaT keratinocytes; washes with TBS, TBS + 1 M NaCl + 0.5% Triton X-100, TBS + 0.5% Triton X-100; Western blotting; only the target …
T1 sequence (peptide, C-terminal amide): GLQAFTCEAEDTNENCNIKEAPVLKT

[2] = target: T2, peptide mimicking loop II of Lystar5 (Asterias rubens); experiment: as above
T2 sequence (peptide, C-terminal amide): GCQVIYSTERGKLRIDCG

[3] = target: T2, peptide mimicking loop II of Lystar5 (Asterias rubens); experiment: pull-down; affinity extraction: Lystar5 or loop I or II (1 mg/mL) coupled to NHS Flexibind magnetic beads, incubated 1 h in TBS with the pre-cleared membrane fraction of PBMCs; washes with TBS, TBS + 1 M NaCl + 0.5% Triton X-100, TBS + 0.5% Triton X-100; Western blotting; only the target purified

binding [1]	binding [2]	binding [3]	Substance
binds			α5 integrin subunit (receptor)
binds	binds	binds	αV integrin subunit (receptor)
